Results on one molecule are retold here after patent US20090131480A1 (priority 2005, published 2009).

Assay [1] concerns organotypic hippocampal slice cultures. The assay is described as follows: NMDA-induced neurotoxicity in organotypic hippocampal slice cultures (PI fluorescence in CA1). The format is cell-based, Wistar rat. The conditions noted are these: 0.1 μM; NMDA alone 35.1±2.2%. The method, then: Organotypic hippocampal slice cultures were prepared using the basic method of Pringle et al, Brain Research, 755:36-46 (1997) modified as follows. Wistar rat pups (8-11 days old) were decapitated and the hippocampus rapidly dissected into ice-cold Gey's balanced salt solution supplemented with 4.5 mg/ml glucose. Transverse sections (400 μm) were cut on a McIlwain tissue chopper and placed back into ice-cold Gey's balanced salt solution. Slices were separated and plated onto Millicell CM culture inserts (4 per well) and maintained at 37° C./5% CO2 for 14 days. […] Medium was changed every 3-4 days.
PI fluorescence was detected using a Leica DMIL inverted microscope fitted with a rhodamine filter set. Any cultures in which PI fluorescence was detected at this stage were excluded from further study. […] Neuronal damage was assessed by PI fluorescence imaging 24 hours after the initiation of the neurotoxic insult. Neurotoxicity protocols are outlined below.
Neuronal damage was assessed using ImageJ software running on a PC. […] Light transmission images were captured prior to the addition of drugs, and PI fluorescence images recorded at the end of the 24-hour recovery period. […] The area of PI fluorescence in the CA1 was measured using the threshold function on ImageJ, and neuronal damage expressed as the percentage of the CA1 in which PI fluorescence was detected above background. […]

Assay [2] deals with dopamine turnover in mice striatum. As to the kind of experiment: Dopamine, DOPAC and HVA content / dopamine turnover in mice striatum (HPLC with electrochemical detection). The format is in vivo, C57BL/6 mice. The conditions noted are these: donepezil orally, 1 hour before sampling.
In the next assay the test system is cortical neurons. As to the kind of experiment: Kainate-induced neuronal toxicity in cortical neurons (LDH release). Conditions: 200 μM kainate 24 h; drugs 24 hours before and during exposure; FIG. 4. Format: cell-based, rat (Wistar, fetal). The protocol:
The cortical tissues were dissociated to single cells by gentle trituration. […] The cell suspension was centrifuged at 310×g for 3 min and the resulting pellets were resuspended in the medium described above.
For orientation: LDH leaks from cells whose membrane has failed.

Assay [3] has as its system organotypic hippocampal slice cultures. As to the kind of experiment: AMPA toxicity in organotypic hippocampal slice cultures (PI fluorescence in CA1). Conditions: longer pre-incubation times (4 to 48 hours tested); AMPA alone 46.5±5.0%. Format: cell-based, Wistar rat. The method, then: Medium was changed every 3-4 days.
Neurotoxicity protocols are outlined below.
(1) AMPA: Cultures were transferred to fresh SFM (+PI) containing 30 μM S-AMPA for 3 hours under normal culture conditions. At the end of this period, cultures were returned to fresh SFM for 21 hours prior to determination of neuronal death by PI imaging. GYKI52466 (30 μM) was used as a positive, neuroprotective control.

The structures appear in SMILES notation.

As to `COc1cc2c(cc1OC)C(=O)C(CC1CCN(Cc3ccccc3)CC1)C2` (stereo not shown) [donepezil, 1-benzyl-4-((5,6-dimethoxy-1-indanon)-2-yl)methylpiperidine], the “neuronal damage, % of CA1 with PI fluorescence” value in assay [1] came to 23.0±2.4%. Moreover, the “elevation of dopamine metabolite in striatum” value in assay [2] is “did not reach significance”. Moreover, in the assay on cortical neurons, the “neuronal survival after kainate insult” value is reported as “modest effect”. Moreover, in assay [3], the “effect on AMPA toxicity” value is “No effect”.
